This assay in a line: qHTS Assay for Lipid Storage Modulators in Drosophila S3 Cells.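 On cell number change: cells counted by Cell Tracker Red CMTPX staining in the red channel.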 Particulars: BODIPY lipid droplet fluorescence, 18-24 h; for cell number change: measured here: cell count max response, cells fed with added oleic acid. Summed up:
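Drosophila S3 cells loaded with oleic acid (400 uM, as added) and compounds at several concentrations; lipid droplets imaged by 488-nm laser-scanning cytometry, 500–530 nm intensity and object ratio to cell channel. Percent activity normalized to 20 uM Triacsin C.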

Setting [1] is: measured here: cell number channel AC50, cells fed with added oleic acid.
The mark [2] stands for this setting: measured here: lipid fluorescence (Fed channel) AC50, cells fed with added oleic acid.

The list shows a part of the results. Further columns of the screen follow, without active or inactive calls. The list favours compounds with an active or inconclusive main result. Words in brackets tell the shape of the fitted curve; partial curves, single points and poor fits give uncertain potencies.

By AC50 is commonly meant the concentration at which the activity in the assay is half-maximal. Read a low AC50 as activity at low concentration. For the molecule `O=C(O)CCN=C1CCc2ccccc2N1`, the cell number change was -44.7%. In addition, the concentration at half-maximal activity (AC50) under setting [1] was 18.4 µM [falling, partial curve, poor fit]. Besides, the half-maximal activity concentration (AC50) under setting [2] was 14.6 µM [falling, partial curve].

In the case of `Cc1oncc1C(=O)Nc1cccc2ccccc12`, the cell number change was -3.87%. The AC50 under setting [2] is 20.6 µM [rising, single point].

Turning to `CCOc1ccc(-c2nn[nH]n2)cc1OCC`, the cell number change worked out at 5.02%. Further, under setting [1], the AC50 is 1.84 µM [rising, partial curve].

As to `O=C(C1CCCO1)N1CCN(C(=S)Nc2ccc(Cl)cc2)CC1` (stereo unspecified), the cell number change came out at 18.5%. The AC50 under setting [1] is 6.51 µM [falling, single point].

For the molecule `COc1ccc(CCNC(=O)C(C)n2nc(C)n3c(cc4occc43)c2=O)cc1OC` (stereo unspecified), the cell number change worked out at 11.8%. In addition, the concentration at half-maximal activity (AC50) under setting [2] is 18.4 µM [rising, single point].

`NC(=O)COC(=O)Cc1coc2cc3c(cc12)CCC3`: the cell number change came out at 17.2%.

Turning to `COc1ccc(NC(=O)CN(C)C(=O)c2cc3c(s2)CCCCC3)cc1`, the cell number change came to 13%. The AC50 under setting [2] is 32.6 µM [rising, partial curve].

Take `NS(=O)(=O)c1ccc(CNS(=O)(=O)c2ccc3ccccc3c2)cc1`: the cell number change came to 70.1%. The AC50 under setting [1] is 29.1 µM [rising, single point].

For the molecule `CC(=O)Nc1ccc(S(=O)(=O)N(C)CC(=O)Nc2ccccc2N2CCOCC2)cc1`, the cell number change was determined as 21.5%. Besides, the concentration at half-maximal activity (AC50) under setting [2] was 4.11 µM [rising, full curve, poor fit].

For `CCOc1cc(NC(=O)c2ccccc2OC)c(OCC)cc1NC(=O)c1ccccc1`, the cell number change is -7.09%. The AC50 under setting [2] is 6.51 µM [falling, single point].

For `CC(OC(=O)c1ccc(NC(=O)CC#N)cc1)C(=O)NC(=O)NC1CCCCC1` (stereo unspecified), the AC50 under setting [2] was 29.1 µM [falling, single point].

With `COc1ccc(Cc2nnc(NC(=O)c3c(-c4ccccc4)noc3C)s2)cc1`, the cell number change came out at 6.03%.

With `Cc1nc2cc(Nc3ccncc3)ccc2s1`, the cell number change was -21.4%.

`O=C(CSc1ncnc2ccccc12)c1ccco1`: the cell number change turned out to be 42.6%. Also, the concentration at half-maximal activity (AC50) under setting [1] is 16.4 µM [rising, partial curve]. For the same molecule, under setting [2], the AC50 is 18.4 µM [rising, partial curve].

For the molecule `Cc1cc(C)n(-c2nc3c(c(=O)[nH]c(=O)n3C)n2CC(O)COc2ccccc2C)n1` (stereo unspecified), the cell number change was -59.2%. Besides, the half-maximal activity concentration (AC50) under setting [1] was 29.1 µM [falling, single point]. Besides, the AC50 under setting [2] was 0.13 µM [falling, full curve, poor fit].

Regarding `CNC(=O)NC(=O)CSc1nc2cc(C(=O)OC)ccc2c(=O)n1-c1ccccc1`, the cell number change is -37.6%. Moreover, under setting [1], the AC50 is 32.6 µM [falling, single point]. For the same molecule, under setting [2], the AC50 is 0.00651 µM [falling, full curve, poor fit].

For the molecule `COC(=O)c1cccc(NS(=O)(=O)c2ccc(OC)c(C(=O)N3CCOCC3)c2)c1C`, the cell number change is -2.5%.

As to `O=C(CSc1nnc2scc(-c3ccccc3)n12)c1ccc2c(c1)OCCO2`, the cell number change is 13.4%. In addition, the AC50 under setting [2] was 0.116 µM [rising, full curve, poor fit].

`COc1ccc(OC)c(/C=C/C(=O)N2CCN(S(=O)(=O)c3ccc(C)cc3C)CC2)c1`: the cell number change is -4.14%. The half-maximal activity concentration (AC50) under setting [2] was 6.51 µM [falling, partial curve, poor fit].

With `COc1ccc(N(CC(=O)Nc2cccc(SC)c2)S(C)(=O)=O)cc1`, under setting [2], the AC50 was 0.116 µM [falling, full curve].

Consider `Cc1ccc(NC(=O)N2CCC(NC(=O)c3ccccc3C)CC2)cc1`, for which the cell number change was found to be 31%. Further, the AC50 under setting [1] was 0.517 µM [rising, full curve, poor fit]. Further, the AC50 under setting [2] is 10.3 µM [rising, partial curve].

For the molecule `CCCCOc1cccc(NC(=O)CSc2nncn2C)c1`, the cell number change worked out at 7.71%. For the same molecule, the AC50 under setting [2] is 5.8 µM [rising, full curve, poor fit].

Take `O=C(c1ccco1)N1CCN(C(=O)c2cc3c(=O)oc4ccccc4c3s2)CC1`: the cell number change is 6.31%. For the same molecule, the AC50 under setting [2] was 0.82 µM [falling, single point].

In the case of `COc1cccc(CN2CCN(C3CCN(c4cccc(C)c4C)CC3)CC2CCO)c1` (stereo unspecified), the cell number change is -18.8%. In addition, under setting [2], the AC50 was 3.26 µM [falling, full curve, poor fit].

`COc1ccc(N2CC(C(=O)Nc3nnc(SCC(=O)NC4CCCC4)s3)CC2=O)cc1` (stereo unspecified): the cell number change was found to be 6.07%.

Consider `O=c1[nH]cnc2onc(-c3ccc(F)cc3)c12`, for which the cell number change was -12.6%. For the same molecule, the AC50 under setting [2] was 0.517 µM [falling, full curve, poor fit].

For the molecule `COc1cccc2sc(N(CCCN(C)C)C(=O)c3ccc(S(=O)(=O)N4CCCc5ccccc54)cc3)nc12`, the cell number change is -25.9%. In addition, under setting [2], the AC50 is 1.64 µM [falling, partial curve].

Take `Cc1nn(Cc2ccccc2)c(C)c1NC(=O)c1cc(-c2ccc3c(c2)OCO3)on1`: under setting [2], the concentration at half-maximal activity (AC50) was 0.0731 µM [rising, full curve].

`O=C(CSc1nc2ccccc2[nH]1)c1ccc2c(c1)OCO2`: the AC50 is, setting by setting: under setting [1], 6.51 µM [rising, single point]; under setting [2], 6.51 µM [rising, single point].

As to `CCCCOc1ccc(C2NC(=O)NC(C)=C2C(C)=O)cc1OCC` (stereo unspecified), the cell number change is -44.9%.

As for `CC(C)(C)C(=O)NC1CC2CCCC(C1)N2C(=O)Nc1ccc(Cl)cc1` (stereo unspecified), the cell number change was found to be 4.56%. Also, under setting [1], the concentration at half-maximal activity (AC50) was 0.0731 µM [rising, full curve, poor fit].

As to `COc1ccc2oc(C(=O)OCC(=O)Nc3ccc(NC(C)=O)cc3)c(C)c2c1`, the cell number change was -30.8%. For the same molecule, the half-maximal activity concentration (AC50) under setting [1] was 2.06 µM [falling, full curve]. Also, under setting [2], the AC50 was 0.82 µM [falling, full curve, poor fit].

As for `CCOc1ncccc1C(=O)Nc1ccc(S(=O)(=O)Nc2nc(C)cc(C)n2)cc1`, the cell number change came to 35.6%. The AC50 under setting [1] was 6.51 µM [rising, partial curve]. Besides, the AC50 under setting [2] is 14.6 µM [rising, partial curve, poor fit].

As for `CCOC(=O)c1cc(-c2ccccc2)nn1-c1ccccn1`, the cell number change amounted to 5.65%. In addition, the AC50 under setting [1] was 3.66 µM [rising, single point].

For `CN(C(=O)c1ccc(NC(=O)Cc2ccc(NC(=O)C3CCN(C(=O)C4CCC4)CC3)cc2)cc1)C1CC1`, the cell number change is -8.18%. Under setting [2], the AC50 is 29.1 µM [falling, single point].

As for `O=C(Nc1nc(-c2ccccc2)cs1)c1ccc(=O)[nH]c1`, the cell number change turned out to be 12.9%.

With `CN(C)S(=O)(=O)c1cccc(C(=O)NCCCn2ccnc2)c1`, the cell number change is 56%. The AC50 under setting [1] was 0.326 µM [rising, partial curve]. Under setting [2], the AC50 is 1.03 µM [rising, partial curve].

In the case of `COc1cc(NC(=O)C2CC2)c(OC)cc1NC(=O)c1ccco1`, the cell number change is 20.5%.

As for `COCCn1c(SC(C)C(=O)NCC2CCCO2)nc2scc(-c3ccc(F)cc3)c2c1=O` (stereo unspecified), the cell number change was -34%. Besides, the AC50 under setting [1] is 29.1 µM [falling, single point].

As for `CC(=O)Nc1ccc(S(=O)(=O)N2CCN(Cc3ccccc3[N+](=O)[O-])CC2)cc1`, the cell number change stood at 10.2%. For the same molecule, the AC50 under setting [1] was 0.731 µM [falling, full curve]. The AC50 under setting [2] was 2.91 µM [falling, full curve].

As to `COc1ccc(-n2c(SCC(=O)NCC3CCCO3)nc3ccccc32)cc1` (stereo unspecified), the cell number change is -49.5%. Further, the AC50 under setting [1] is 29.1 µM [falling, single point]. The AC50 under setting [2] is 16.4 µM [rising, partial curve].

On to `[O-]/C(=C(\C(=S)Nc1ccc(SC(F)F)cc1)[n+]1ccccc1)c1ccc(Cl)cc1Cl`, for which the cell number change is 14%. Besides, the AC50 under setting [1] was 4.61 µM [rising, partial curve, poor fit]. For the same molecule, under setting [2], the half-maximal activity concentration (AC50) is 6.51 µM [rising, partial curve, poor fit].

As to `CCCOc1ccccc1Cn1c(=O)oc2ccc(C)cc21`, the cell number change was 110%. Also, under setting [1], the AC50 was 2.59 µM [rising, partial curve]. Besides, under setting [2], the AC50 is 6.51 µM [rising, partial curve, poor fit].

Consider `CC1CCN(C(=O)N2c3ccccc3Sc3ccccc32)CC1`, for which the cell number change came out at 30.1%. Besides, the concentration at half-maximal activity (AC50) under setting [1] was 7.31 µM [rising, partial curve, poor fit].

For `CCN1/C(=C/c2cc[n+](CCCS(=O)(=O)[O-])c3ccccc23)Sc2ccccc21`, the cell number change is -38.8%. Further, the AC50 under setting [1] is 0.206 µM [falling, full curve, poor fit]. Also, under setting [2], the AC50 was 5.8 µM [falling, partial curve].

Turning to `CC1(C)C(=O)C2(CCCCC2)C(=O)OC1c1cccc([N+](=O)[O-])c1` (stereo unspecified), the cell number change was -2.5%. The AC50 under setting [2] is 2.91 µM [rising, partial curve].

Consider `CC1CCN(C(=O)CSc2nc3c(c(=O)n2C)SCC3)CC1`, for which the cell number change came out at 9.38%.

Turning to `COc1ccc(CNC(=S)Nc2ccc3nc(N4CCOCC4)cc(C)c3c2)cc1`, the cell number change was -36.9%. Also, under setting [1], the half-maximal activity concentration (AC50) was 25.9 µM [falling, single point]. Under setting [2], the AC50 is 29.1 µM [falling, single point].

`COC(=O)C(C)NC(=S)N1CCN(c2c(F)cc3c(=O)c(C(=O)O)cn(C4CC4)c3c2OC)CC1C` (stereo unspecified): the cell number change was found to be 29.2%. Under setting [1], the AC50 was 1.84 µM [rising, partial curve, poor fit].

Take `Cc1cccc(-c2cc(C(=O)Nc3ccncc3)c3ccccc3n2)c1`: the cell number change was -34.8%. Also, the AC50 under setting [1] was 29.1 µM [falling, single point]. The AC50 under setting [2] is 29.1 µM [falling, single point].

`CCN(CC)c1ccc2nc3ccc(N)cc3[n+](-c3ccccc3)c2c1`: the cell number change was -98.8%. For the same molecule, under setting [1], the half-maximal activity concentration (AC50) was 9.2 µM [falling, partial curve]. Further, the concentration at half-maximal activity (AC50) under setting [2] was 8.2 µM [falling, partial curve].

As to `COC(=O)NCc1ccc(CNC(=O)OC)cc1`, the cell number change is -26.9%. Also, under setting [2], the AC50 was 1.46 µM [falling, partial curve, poor fit].

Take `CC(=O)c1c(C)oc2ccc(NS(=O)(=O)c3ccc(C(=O)O)cc3)cc12`: the cell number change is 28.3%.

As to `O=C(Nc1ccccc1N1CCN(C(=O)c2ccccc2)CC1)c1ccc(Cl)cc1`, the cell number change was found to be 5.91%. Further, the AC50 under setting [2] is 8.2 µM [falling, partial curve].

In the case of `Cc1cccc(OCCn2c(S(=O)(=O)O)nc3ccccc32)c1`, the cell number change was -18%.

With `Cc1cc(C(=O)CSc2cccc[n+]2[O-])c(C)n1-c1ccc(Br)cc1`, the cell number change was 36.2%.

As to `Cc1ccc(S(=O)(=O)N2CCC(C(=O)OC(C)C(=O)N(C)c3ccccc3)CC2)cc1C` (stereo unspecified), the cell number change is 12.9%. Further, the AC50 under setting [1] was 0.411 µM [falling, single point]. Moreover, the AC50 under setting [2] is 0.517 µM [falling, full curve].

For the origin of these results see PubChem BioAssay AID2685 (National Center for Advancing Translational Sciences (NCATS), 2010).
